Article PMC10457299
Construct, isoform or probe ends are uncertain for at least one entry. Tags and fusion partners may be left off the protein sequences shown.

Target: T1, BnA09MYB47a ZY821 allele (GST-MYB47) (Brassica napus (black-seeded ZY821)) (UniProt A0ABQ7YCS3)
T1 sequence (looked up, limits assumed): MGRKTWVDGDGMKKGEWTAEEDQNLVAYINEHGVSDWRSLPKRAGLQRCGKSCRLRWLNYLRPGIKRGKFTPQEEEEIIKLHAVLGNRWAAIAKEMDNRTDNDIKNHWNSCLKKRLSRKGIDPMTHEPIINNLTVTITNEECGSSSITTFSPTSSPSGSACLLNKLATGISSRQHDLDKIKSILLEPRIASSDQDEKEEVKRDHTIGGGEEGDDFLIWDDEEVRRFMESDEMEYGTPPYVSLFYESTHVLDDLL
Assay: EMSA
Settings: EMSA: LightShift Chemiluminescent kit, room temperature 20 min, native 6% acrylamide gel; salt and pH not stated; recombinant protein; protein details: GST (pGEX4T-1)

“CTTCTTCACACATTAACTAACTACCGGTAGTTATGCACTT (double strand) [BnTT18 promoter probe 1]”: binds.
